Reference: publication PMC12622802, “Potent kinase inhibitors from the Merck KGaA OGHL: Novel hits against Trypanosoma brucei with potential for repurposing” (PLOS Neglected Tropical Diseases, 2025)
“And” between values parts separate entries of the source, which are not always exact repeats. Identical values can stand only once.

System: HepG2 (human hepatocyte carcinoma) cells
Assay: Cytotoxicity, resazurin reduction assay, HepG2
Assay type: cell-based
Conditions: primary screen; CC50 HepG2/IC50 T. b. brucei
Protocol: Vero E6 (African green monkey kidney), Raw264.7 (murine macrophages) and HepG2 (human hepatocyte carcinoma) cell lines, sourced from the American Type Culture Collection, were cultured in DMEM supplemented with 10% (v/v) heat-inactivated fetal bovine serum, 1% (v/v) non-essential amino acids, and 1% (v/v) penicillin-streptomycin. Cells were maintained at 37 °C in a 5% CO2 atmosphere. For cytotoxicity testing, they were seeded (90 µL) in 96-well plates at a density of 1x10^4 cells/well, in duplicate, and allowed to adhere overnight. Serial dilutions (50-0.08 µM) of the compounds were prepared, and 10 µL of each were incubated with the monolayer for 48 hours. Podophyllotoxin was tested as a positive control at 10 μM and 0.5% DMSO (100% cell viability) was used as negative control. Cell viability was then assessed using the resazurin reduction assay, as described above. The 50% cytotoxic concentration (CC50) was calculated using GraphPad Prism software (version 8.0), and selectivity indices (SIs) were determined by dividing the […].
Data were analysed using Microsoft Excel and GraphPad Prism 8.0. Nonlinear regression with a sigmoidal dose-response fit model was applied to the data to determine IC50 and CC50 values. Results represent the mean ± standard deviation (SD) from two independent experiments performed in duplicate.

Compound	SI (HepG2)
COc1ccc(C(=O)N2CCC(C)(C)c3cc(C4=NNC(=O)SC4C)ccc32)cc1OC (stereo not drawn) [OGHL00025]	>5.42
CCC(C)[S+]([O-])c1ccc(-c2nc3ccncc3[nH]2)c(OC)c1 (stereo not drawn) [OGHL00019]	7.97
CCN=C(c1ccc(OC)c(OC)c1)N1CCCc2cc(C3=NNC(=O)SC3C)ccc21 (stereo not drawn) [OGHL00032]	9.6
Oc1ccc2[nH]cc(CCCCN3CC=C(c4ccccc4)CC3)c2c1 [OGHL00007]	>9.47
COc1ccc(OCC(N)=O)cc1-c1cn2cc(C(=O)NCCc3c(OC)cccc3OC)sc2n1 [OGHL00241]	4.05
CCOc1cc(CCNC(=O)C[C@H]2S[C@@H](c3ccc(C#Cc4ccccc4)cc3)N(c3cccc(C(N)=O)c3)C2=O)ccc1O [OGHL00183]	5.2
Cc1ccccc1-c1ccc(-c2nc(-c3ccc(CN(C)CCC(=O)O)c(F)c3)no2)cc1OCC1CC1 [OGHL00165]	>5.63
CNS(=O)(=O)c1ccccc1Nc1nc(Nc2ccc(N3CCOCC3)cc2OC)ncc1Br [OGHL00134]	> 10 and 16.84
CNC(=O)c1cc(Oc2ccc(NC(=O)Nc3cc(C(F)(F)F)ccc3-n3ccnc3)cc2)ccn1 [OGHL00130]	4.2
COc1cccc(CNc2nnc(-c3c[nH]c4ncccc34)o2)c1 [OGHL00138]	> 10 and 14.87
COc1ccc(OCCCO)cc1-c1cn2cc(-c3nnc(NCCCCc4ccccc4)o3)ccc2n1 [OGHL00236]	1.5
COc1cc(OC)c(CCNC(=O)c2cn3cc(-c4cc(OC)ccc4OC)nc3s2)c(OC)c1 [OGHL00227]	> 10 and > 17.85
CCCc1nn(C)c2c(=O)[nH]c(-c3cc(C(=O)N=C(N)N)ccc3OCC)nc12 [OGHL00103]	>6.38
COc1ccc(OC)c(CCNC(=O)c2cn3cc(-c4cc(OC)ccc4OC)nc3s2)c1 [OGHL00225]	>5.07
COc1cc(OC)c(CCNC(=O)c2ccc3nc(-c4cc(OC)ccc4OC)cn3c2)c(OC)c1 [OGHL00231]	> 5.5
COc1cc(OC)c(CCNC(=O)c2cn3cc(-c4cc(OCC#N)ccc4OC)nc3s2)c(OC)c1 [OGHL00238]	0.75
CN(CCCCc1ccc(F)cc1)CCC(=O)c1ccc2[nH]c(=O)oc2c1 [OGHL00087]	3.16

System: Raw264.7 (murine macrophages)
Assay: Cytotoxicity, resazurin reduction assay, Raw264.7
Assay type: cell-based
Conditions: confirmation screen, powdered form; ratio CC50 / IC50
Protocol: (§1) For cytotoxicity testing, they were seeded (90 µL) in 96-well plates at a density of 1x10^4 cells/well, in duplicate, and allowed to adhere overnight. […] Cell viability was then assessed using the resazurin reduction assay, as described above. […] Data were analysed using Microsoft Excel and GraphPad Prism 8.0. Nonlinear regression with a sigmoidal dose-response fit model was applied to the data to determine IC50 and CC50 values. Results represent the mean ± standard deviation (SD) from two independent experiments performed in duplicate.

Compound	SI Raw
Cn1cc(-c2cnc3[nH]cc(-c4cn(Cc5cccc(F)c5F)nn4)c3c2)cn1 [OGHL00169, 3-(1-(2,3-difluorobenzyl)-1H-1,2,3-triazol-4-yl)-5-(1-methyl-1H-pyrazol-4-yl)-1H-pyrrolo[2,3-b]pyridine]	48.28
CN(C)C(=O)/C=C/C(=O)c1ccc(SCc2ccc(Cl)cc2Cl)cc1 [OGHL00006, (E)-4-(4-((2,4-dichlorobenzyl)thio)phenyl)-N,N-dimethyl-4-oxobut-2-enamide]	3.7
CNS(=O)(=O)c1ccccc1Nc1nc(Nc2cc(OC)c(OC)cc2C)ncc1Br [OGHL00133, 2-((5-bromo-2-((4,5-dimethoxy-2-methylphenyl)amino)pyrimidin-4-yl)amino)-N-methylbenzenesulfonamide]	642.86

System: Vero E6 (African green monkey kidney) cells
Assay: Cytotoxicity, resazurin reduction assay, Vero
Assay type: cell-based
Conditions: confirmation screen, powdered form
Protocol: as §1

Compound	SI Vero
CN(C)C(=O)/C=C/C(=O)c1ccc(SCc2ccc(Cl)cc2Cl)cc1 [OGHL00006, (E)-4-(4-((2,4-dichlorobenzyl)thio)phenyl)-N,N-dimethyl-4-oxobut-2-enamide]	> 2 and 2
